# Data as given in patent US5409911A, “Prostaglandin analog for treating osteoporosis” (Merck & Co., Inc., priority 1992, dated 1995).
# Key:
# [1] = single i.v. dose, equimolar; sacrifice at 24 hours, 14 and 28 days; percent of administered dose
# [2] = type: binding, human; conditions: 1 min, separate experiment
structure (smiles),measurement,setting,value
"NCCCC(O)(P(=O)([O-])[O-])P(=O)(O)O.[Na+].[Na+] [^3 H-ABP, 4-amino-1-hydroxybutylidene bisphosphonic acid disodium salt]",total uptake by rat tibiae and femora,[1],approximately 34%
same,uptake of ^3 H-ABP by bone,[2],77%
